Measured values: the supplement of paper PMC10849652
The list shows a part of the results.

Sequences of proteins named here, by UniProt entry; tags and fusion partners are left off. A change or cut given only in a name is not applied to a line headed by its entry.
UniProt Q13948: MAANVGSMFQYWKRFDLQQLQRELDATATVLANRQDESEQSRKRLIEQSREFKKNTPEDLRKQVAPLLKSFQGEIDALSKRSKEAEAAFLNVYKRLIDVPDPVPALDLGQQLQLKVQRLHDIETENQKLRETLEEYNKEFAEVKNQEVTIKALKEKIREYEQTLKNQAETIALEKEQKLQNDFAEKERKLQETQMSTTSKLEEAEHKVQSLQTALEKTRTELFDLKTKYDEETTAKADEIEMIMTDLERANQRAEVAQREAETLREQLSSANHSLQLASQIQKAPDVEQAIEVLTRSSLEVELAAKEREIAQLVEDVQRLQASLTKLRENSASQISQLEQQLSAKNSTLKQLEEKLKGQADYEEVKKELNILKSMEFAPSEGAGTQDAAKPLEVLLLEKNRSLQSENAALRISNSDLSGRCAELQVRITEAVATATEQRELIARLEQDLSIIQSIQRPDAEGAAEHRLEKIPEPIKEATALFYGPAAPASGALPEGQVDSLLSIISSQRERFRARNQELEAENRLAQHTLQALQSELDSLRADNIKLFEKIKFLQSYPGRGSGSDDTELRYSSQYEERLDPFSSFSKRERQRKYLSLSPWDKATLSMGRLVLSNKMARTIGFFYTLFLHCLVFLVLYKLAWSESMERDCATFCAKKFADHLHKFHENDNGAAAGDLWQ
UniProt Q7L1T6: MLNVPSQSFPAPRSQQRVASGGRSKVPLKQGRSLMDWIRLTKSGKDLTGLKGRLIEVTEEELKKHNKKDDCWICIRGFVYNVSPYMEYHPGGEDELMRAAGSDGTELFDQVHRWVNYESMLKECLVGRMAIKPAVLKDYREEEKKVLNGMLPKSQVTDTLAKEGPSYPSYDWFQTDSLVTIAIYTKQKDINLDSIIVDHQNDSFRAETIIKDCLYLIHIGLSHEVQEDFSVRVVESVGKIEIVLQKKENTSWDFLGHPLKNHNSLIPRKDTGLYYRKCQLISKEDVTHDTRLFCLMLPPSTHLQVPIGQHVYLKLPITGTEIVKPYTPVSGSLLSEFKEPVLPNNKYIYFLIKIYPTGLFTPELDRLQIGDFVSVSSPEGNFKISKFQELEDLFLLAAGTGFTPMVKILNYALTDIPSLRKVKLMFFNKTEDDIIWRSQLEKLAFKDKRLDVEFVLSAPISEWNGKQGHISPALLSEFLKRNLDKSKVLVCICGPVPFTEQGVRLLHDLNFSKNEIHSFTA
UniProt P0DMU9: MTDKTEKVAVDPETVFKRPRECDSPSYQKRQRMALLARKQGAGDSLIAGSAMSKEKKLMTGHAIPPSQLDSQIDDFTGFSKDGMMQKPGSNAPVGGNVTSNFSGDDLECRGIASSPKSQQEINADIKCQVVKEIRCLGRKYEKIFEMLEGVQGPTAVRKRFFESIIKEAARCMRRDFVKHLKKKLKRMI
UniProt P17812: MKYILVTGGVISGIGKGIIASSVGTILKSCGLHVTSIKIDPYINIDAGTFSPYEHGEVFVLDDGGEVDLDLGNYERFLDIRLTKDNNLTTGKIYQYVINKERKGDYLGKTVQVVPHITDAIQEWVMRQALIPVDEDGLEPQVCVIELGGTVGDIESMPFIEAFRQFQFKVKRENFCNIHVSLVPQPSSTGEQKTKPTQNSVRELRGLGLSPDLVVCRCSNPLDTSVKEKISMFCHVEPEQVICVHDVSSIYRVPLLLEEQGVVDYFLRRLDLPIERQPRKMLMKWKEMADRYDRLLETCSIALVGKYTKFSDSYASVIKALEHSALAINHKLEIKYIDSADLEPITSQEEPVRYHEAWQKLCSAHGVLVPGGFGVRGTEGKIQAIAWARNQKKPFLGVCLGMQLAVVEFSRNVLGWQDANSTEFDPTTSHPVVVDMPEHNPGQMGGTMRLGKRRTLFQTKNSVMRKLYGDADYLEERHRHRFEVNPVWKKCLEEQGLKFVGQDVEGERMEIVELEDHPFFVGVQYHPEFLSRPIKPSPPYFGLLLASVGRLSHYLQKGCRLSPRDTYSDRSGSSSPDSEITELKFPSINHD
UniProt P35222, whole entry, looked up: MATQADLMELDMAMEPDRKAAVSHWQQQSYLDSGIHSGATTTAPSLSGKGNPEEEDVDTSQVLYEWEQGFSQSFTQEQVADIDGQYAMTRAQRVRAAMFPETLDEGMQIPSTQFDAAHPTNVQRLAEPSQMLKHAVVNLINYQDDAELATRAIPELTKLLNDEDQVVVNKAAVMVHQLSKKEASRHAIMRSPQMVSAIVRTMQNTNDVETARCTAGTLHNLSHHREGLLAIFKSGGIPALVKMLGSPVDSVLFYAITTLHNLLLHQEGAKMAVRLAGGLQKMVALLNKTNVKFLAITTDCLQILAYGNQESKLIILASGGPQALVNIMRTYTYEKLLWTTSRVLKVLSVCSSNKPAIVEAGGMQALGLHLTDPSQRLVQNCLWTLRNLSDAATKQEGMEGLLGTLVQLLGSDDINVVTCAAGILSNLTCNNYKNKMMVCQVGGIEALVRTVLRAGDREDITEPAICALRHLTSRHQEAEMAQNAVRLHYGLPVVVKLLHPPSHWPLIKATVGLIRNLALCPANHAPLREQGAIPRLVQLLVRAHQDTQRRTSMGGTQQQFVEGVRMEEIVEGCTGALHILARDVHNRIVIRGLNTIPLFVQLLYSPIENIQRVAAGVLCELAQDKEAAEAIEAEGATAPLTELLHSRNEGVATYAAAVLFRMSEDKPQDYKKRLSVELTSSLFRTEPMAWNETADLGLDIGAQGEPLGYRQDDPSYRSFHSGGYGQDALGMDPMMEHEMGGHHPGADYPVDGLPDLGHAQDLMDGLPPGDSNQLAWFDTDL
UniProt P00387: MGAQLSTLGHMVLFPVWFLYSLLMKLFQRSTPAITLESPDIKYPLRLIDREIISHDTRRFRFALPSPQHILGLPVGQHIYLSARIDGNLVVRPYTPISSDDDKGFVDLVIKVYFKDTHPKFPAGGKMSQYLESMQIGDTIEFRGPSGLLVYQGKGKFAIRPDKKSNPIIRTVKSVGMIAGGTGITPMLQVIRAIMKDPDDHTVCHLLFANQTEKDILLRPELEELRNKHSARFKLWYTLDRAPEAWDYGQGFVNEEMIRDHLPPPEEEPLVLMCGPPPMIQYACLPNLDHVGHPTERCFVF
UniProt O60888: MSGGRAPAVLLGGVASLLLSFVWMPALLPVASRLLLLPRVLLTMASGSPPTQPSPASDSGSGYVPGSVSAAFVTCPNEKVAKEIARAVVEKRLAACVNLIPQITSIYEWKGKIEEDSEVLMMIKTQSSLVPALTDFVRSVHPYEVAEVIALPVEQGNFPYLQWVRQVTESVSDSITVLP
UniProt O43310: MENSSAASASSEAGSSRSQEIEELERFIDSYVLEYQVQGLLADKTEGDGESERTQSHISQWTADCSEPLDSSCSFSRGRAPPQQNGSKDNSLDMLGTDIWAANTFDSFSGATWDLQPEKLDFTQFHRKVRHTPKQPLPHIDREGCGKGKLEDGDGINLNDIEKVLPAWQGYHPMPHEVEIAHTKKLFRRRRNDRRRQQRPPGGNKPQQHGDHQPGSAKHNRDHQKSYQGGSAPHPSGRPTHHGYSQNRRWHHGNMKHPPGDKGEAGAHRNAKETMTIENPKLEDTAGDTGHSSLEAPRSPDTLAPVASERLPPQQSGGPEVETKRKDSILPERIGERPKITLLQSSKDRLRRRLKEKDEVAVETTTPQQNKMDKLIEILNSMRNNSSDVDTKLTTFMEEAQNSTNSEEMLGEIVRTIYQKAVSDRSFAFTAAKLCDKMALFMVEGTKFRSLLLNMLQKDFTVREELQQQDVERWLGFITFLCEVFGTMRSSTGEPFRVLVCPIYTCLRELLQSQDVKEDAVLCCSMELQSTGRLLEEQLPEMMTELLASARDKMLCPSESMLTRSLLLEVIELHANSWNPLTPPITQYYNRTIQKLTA
UniProt Q13618, whole entry, looked up: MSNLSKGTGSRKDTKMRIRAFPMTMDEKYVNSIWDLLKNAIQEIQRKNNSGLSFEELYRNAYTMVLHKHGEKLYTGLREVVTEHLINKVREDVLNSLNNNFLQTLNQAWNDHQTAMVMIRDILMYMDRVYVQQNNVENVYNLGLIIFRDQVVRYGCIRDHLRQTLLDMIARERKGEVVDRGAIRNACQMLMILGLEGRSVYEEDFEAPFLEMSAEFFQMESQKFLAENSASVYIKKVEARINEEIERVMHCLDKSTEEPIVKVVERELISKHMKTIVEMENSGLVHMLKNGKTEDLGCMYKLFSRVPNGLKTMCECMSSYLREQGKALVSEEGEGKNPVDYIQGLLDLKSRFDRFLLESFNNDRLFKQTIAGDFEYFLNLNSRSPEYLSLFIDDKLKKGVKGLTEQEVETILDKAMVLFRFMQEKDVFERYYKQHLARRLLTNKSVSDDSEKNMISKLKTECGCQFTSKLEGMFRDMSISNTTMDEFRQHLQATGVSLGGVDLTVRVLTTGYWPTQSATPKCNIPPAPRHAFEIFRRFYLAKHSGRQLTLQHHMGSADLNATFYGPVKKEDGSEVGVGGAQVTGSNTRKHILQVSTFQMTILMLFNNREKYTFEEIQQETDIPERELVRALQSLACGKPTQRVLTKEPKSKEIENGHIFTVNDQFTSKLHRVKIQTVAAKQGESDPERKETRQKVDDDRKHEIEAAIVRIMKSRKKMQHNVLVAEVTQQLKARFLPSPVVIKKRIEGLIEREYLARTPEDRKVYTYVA
UniProt P01034: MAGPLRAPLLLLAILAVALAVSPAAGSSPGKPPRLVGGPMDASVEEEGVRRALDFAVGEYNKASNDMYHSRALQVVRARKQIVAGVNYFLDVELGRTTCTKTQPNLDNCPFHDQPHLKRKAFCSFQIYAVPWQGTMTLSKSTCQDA
UniProt Q14118: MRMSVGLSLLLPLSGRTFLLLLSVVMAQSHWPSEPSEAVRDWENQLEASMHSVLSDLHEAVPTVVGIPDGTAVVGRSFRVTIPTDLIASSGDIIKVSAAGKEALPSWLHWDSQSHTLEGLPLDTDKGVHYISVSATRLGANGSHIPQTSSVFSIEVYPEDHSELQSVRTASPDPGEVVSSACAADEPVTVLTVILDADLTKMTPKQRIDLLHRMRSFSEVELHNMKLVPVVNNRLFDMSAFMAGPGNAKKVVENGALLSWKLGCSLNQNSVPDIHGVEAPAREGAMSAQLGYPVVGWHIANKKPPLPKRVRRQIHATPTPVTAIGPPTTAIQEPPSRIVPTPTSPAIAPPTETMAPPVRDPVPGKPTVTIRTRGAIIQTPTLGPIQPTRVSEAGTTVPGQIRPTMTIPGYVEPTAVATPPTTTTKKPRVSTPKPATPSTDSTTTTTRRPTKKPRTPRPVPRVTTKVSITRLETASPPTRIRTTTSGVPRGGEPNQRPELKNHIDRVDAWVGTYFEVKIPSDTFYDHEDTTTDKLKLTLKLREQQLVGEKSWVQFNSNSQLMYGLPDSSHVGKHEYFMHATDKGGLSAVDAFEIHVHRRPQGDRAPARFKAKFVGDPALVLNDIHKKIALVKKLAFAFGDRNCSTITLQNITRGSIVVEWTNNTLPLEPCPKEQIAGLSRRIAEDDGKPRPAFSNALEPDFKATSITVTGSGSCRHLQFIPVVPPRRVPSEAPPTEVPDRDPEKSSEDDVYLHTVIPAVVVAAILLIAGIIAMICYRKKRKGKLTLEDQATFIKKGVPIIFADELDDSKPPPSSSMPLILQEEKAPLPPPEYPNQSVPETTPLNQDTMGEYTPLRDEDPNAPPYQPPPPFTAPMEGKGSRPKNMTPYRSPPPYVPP
UniProt Q8N465: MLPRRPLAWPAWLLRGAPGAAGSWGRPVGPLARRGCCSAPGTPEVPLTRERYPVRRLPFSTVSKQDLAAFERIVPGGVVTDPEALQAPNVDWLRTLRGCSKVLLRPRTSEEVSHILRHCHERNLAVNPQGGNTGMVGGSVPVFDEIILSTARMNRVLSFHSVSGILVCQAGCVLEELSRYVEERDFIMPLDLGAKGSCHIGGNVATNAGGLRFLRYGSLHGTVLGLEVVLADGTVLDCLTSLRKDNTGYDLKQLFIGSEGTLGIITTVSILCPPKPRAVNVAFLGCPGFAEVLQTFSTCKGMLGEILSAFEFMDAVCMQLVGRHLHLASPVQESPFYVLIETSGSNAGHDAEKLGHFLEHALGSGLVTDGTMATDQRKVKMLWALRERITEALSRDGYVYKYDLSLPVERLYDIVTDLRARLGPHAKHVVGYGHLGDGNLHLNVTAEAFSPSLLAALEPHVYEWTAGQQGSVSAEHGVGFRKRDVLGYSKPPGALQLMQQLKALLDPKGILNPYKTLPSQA
UniProt O60911: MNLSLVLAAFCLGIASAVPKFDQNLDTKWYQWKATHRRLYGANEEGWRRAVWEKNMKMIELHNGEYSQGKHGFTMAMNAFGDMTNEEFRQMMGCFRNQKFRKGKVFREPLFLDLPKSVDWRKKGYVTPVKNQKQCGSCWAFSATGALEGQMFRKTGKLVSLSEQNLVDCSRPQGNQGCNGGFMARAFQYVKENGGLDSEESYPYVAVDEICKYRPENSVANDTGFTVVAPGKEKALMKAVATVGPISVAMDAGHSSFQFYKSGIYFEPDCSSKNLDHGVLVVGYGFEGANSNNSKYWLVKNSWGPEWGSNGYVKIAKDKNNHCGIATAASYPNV

Each target was assayed with CC1=NC(=CC=C1)C2=C(N=C(N2)C(C)(C)C)C3=CC4=NC=CN=C4C=C3 (assay: log2 fold change, soluble protein after heating vs DMSO (PISA); higher = thermal stabilisation; K562 cells, 10 uM, 30 min; active = over 0.2 and 3.5 SD of the protein, either way, in both replicates (recomputed)).
Outline: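 Quantification of soluble protein used TMTpro 16plex LC-MS/MS, with channel sums equalised. Samples were the supernatant after 21,000xg for 90 min of pooled aliquots from K562 cells (2×10^6 cells/mL) treated with 10 μM compound for 30 min, heated for 3 min over 48°C-58°C, and extracted in PBS with 0.5% NP-40 at 4°C. Values, from duplicates, describe thermal stability against control samples on a log2 fold-change scale.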

Question: Which log2 fold change does the source give for CT47A1 (UniProt Q5JQC4) here?
Answer: The log2 fold change was inactive: 0.021.

Question: Which log2 fold change does the source give for CWC27 (UniProt Q6UX04) here?
Answer: The log2 fold change was inactive: 0.021.

Question: Which log2 fold change does the source give for CYB5B, A0A499FJ32 here?
Answer: The log2 fold change was inactive: 0.013.

Question: How did the log2 fold change turn out when CUX1 isoform 2 (UniProt Q13948) was run?
Answer: Its log2 fold change is inactive: -0.031.

Question: With CYB5R4 (UniProt Q7L1T6) as the target, how does the log2 fold change read?
Answer: The log2 fold change was inactive: 0.006.

Question: With CYHR1 (UniProt E9PJD7) as the target, how does the log2 fold change read?
Answer: Its log2 fold change is inactive: -0.004.

Question: How did the log2 fold change turn out when DCAF7 (UniProt P61962) was run?
Answer: Its log2 fold change is inactive: 0.044.

Question: For CT45A10 (UniProt P0DMU9), which log2 fold change is on record?
Answer: Its log2 fold change is inactive: -0.07.

Question: CTPS1 (UniProt P17812) was tested. Which log2 fold change did it give?
Answer: Its log2 fold change is inactive: 0.022.

Question: For CTH (UniProt P32929), which log2 fold change is on record?
Answer: The log2 fold change was inactive: 0.018.

Question: How did the log2 fold change turn out when CTNNA2 (UniProt P26232) was run?
Answer: Its log2 fold change is inactive: 0.031.

Question: How did the log2 fold change turn out when CUL1 (UniProt Q13616) was run?
Answer: Its log2 fold change is inactive: 0.031.

Question: For CTSL (UniProt P07711), which log2 fold change is on record?
Answer: Its log2 fold change is inactive: 0.013.

Question: CTNNB1 (UniProt P35222) was tested. Which log2 fold change did it give?
Answer: The log2 fold change was inactive: -0.028.

Question: How did the log2 fold change turn out when CYB5R3 isoform 3 (UniProt P00387) was run?
Answer: The log2 fold change was inactive: 0.015.

Question: With CUTA isoform 2 (UniProt O60888) as the target, how does the log2 fold change read?
Answer: The log2 fold change was inactive: 0.044.

Question: Which log2 fold change does the source give for CTIF isoform 2 (UniProt O43310) here?
Answer: Its log2 fold change is inactive: -0.173.

Question: Which log2 fold change does the source give for CUL3 (UniProt Q13618) here?
Answer: Its log2 fold change is inactive: 0.027.

Question: CUL2 isoform 2 (UniProt Q13617) was tested. Which log2 fold change did it give?
Answer: The log2 fold change was inactive: 0.058.

Question: Which log2 fold change does the source give for CST3 (UniProt P01034) here?
Answer: Its log2 fold change is inactive: 0.018.

Question: For DAG1 (UniProt Q14118), which log2 fold change is on record?
Answer: Its log2 fold change is inactive: 0.001.

Question: For D2HGDH (UniProt Q8N465), which log2 fold change is on record?
Answer: The log2 fold change was inactive: 0.004.

Question: Which log2 fold change does the source give for CTSV (UniProt O60911) here?
Answer: Its log2 fold change is inactive: -0.017.
